The results in this text go back to publication PMC11948057.

Chains of the proteins cited; added tags and fusions are not shown. Lines headed by an entry give the natural chain unless they say otherwise; changes in a name come on top.
UniProt Q6K3B2: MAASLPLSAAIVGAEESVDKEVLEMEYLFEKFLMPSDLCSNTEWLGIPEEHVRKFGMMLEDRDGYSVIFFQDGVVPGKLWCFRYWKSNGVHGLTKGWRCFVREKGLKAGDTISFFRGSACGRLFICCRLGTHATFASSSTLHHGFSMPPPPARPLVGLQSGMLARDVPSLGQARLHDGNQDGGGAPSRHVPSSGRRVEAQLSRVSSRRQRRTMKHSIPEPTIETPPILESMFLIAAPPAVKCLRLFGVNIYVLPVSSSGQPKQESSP
UniProt Q336P5: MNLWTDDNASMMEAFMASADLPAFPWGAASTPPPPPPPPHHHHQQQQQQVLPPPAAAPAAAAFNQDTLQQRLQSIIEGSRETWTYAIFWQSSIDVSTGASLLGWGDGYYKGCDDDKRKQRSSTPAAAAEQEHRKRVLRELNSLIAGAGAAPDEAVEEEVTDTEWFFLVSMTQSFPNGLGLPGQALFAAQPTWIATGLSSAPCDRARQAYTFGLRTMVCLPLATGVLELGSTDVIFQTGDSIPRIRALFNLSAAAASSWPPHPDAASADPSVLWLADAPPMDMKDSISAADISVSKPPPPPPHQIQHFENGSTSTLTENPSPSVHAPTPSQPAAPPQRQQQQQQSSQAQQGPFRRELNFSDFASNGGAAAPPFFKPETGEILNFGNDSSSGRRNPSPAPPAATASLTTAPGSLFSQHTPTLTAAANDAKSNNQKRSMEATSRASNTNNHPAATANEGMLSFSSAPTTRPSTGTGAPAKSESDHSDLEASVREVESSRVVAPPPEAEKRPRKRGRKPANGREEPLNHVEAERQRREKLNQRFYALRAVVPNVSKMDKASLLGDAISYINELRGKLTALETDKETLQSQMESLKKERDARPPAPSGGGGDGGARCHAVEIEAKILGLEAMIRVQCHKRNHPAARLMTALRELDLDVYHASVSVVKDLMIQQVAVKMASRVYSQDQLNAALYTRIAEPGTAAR

This experiment addresses OsRAV15-MYC in transgenic rice (OsRAV15-2#) (rice) (UniProt Q6K3B2). The experiment is described as follows: affinity purification with mass spectrometry; IP-MS from NIP and OsRAV15 overexpressing rice plants.

These are yes or no findings as the source states them, for the method shown. In cells and extracts the contact can be indirect. A yes stands for co-enrichment or nearness to the bait. Other partners may have been found.

Take “OsMYC2 (endogenous in rice) (from UniProt Q336P5 1-699)”: the binding entry is recorded as “binds”.
